Results as given in PubChem BioAssay AID256 (DTP/NCI, 2004).
The list is a part of this screen's results and no random one: it is rich in T/C values a quarter to a half above the control, in often repeated tests (any T/C) and in doses without a T/C. Other doses and runs of a compound stand elsewhere. T/C gives the treated animals as a percentage of the vehicle group. Some entries give survivors of the animals treated and no T/C: the source holds a T/C of zero for them, seemingly a mark for toxic or unscored doses. Some doses without a T/C left all or most animals alive at the check, yet need not have been tolerated: survival well below the control is almost never listed, so the zero probably covers shortened survival too. Survivors were counted at the toxicity check, usually on the fifth day, unless a day is given; later deaths do not show. Schedules are NCI's codes, taken here to give the interval after Q, in days (D) or hours (H), and the number of doses after X. For survival time, the PubChem record calls one and a half times the control and up active, and a quarter to a half above the control has no call in these data; cut-offs in other NCI protocols can differ. Counts like (3×) count equal records among those shown. Some entries hold several experiments; the results are listed from low to high. Some T/C values carry the count of animals alive at the toxicity check (mostly the fifth day); without a count, all were alive then.

System: CD2F1 mice, L1210 leukemia ip, survival T/C
Assay: NCI In Vivo Anticancer Drug Screen. Data for tumor model L1210 Leukemia (intraperitoneal) in CD2F1 (CDF1) mice
Details: higher T/C = longer survival
In short: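 Implant tumor; dose compound or vehicle; measure endpoint in both groups; report treated divided by control.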

[1] = T/C endpoint: mean survival time, dose: 200.0 mg/kg/injection, schedule: Q01DX009 (ip), vehicle: saline with Tween-80

With `CO[C@]12[C@@H](COC(=O)NCCO)C3=C(C(=O)C(C)=C(N)C3=O)N1C[C@@H]1[C@H]2N1C` (some centres not stated) the T/C (T/C endpoint: mean survival time, dose: 25.0 mg/kg/injection, schedule: Q01DX009 (ip), vehicle: saline) was 125 % of control, the T/C (T/C endpoint: mean survival time, dose: 100.0 mg/kg/injection, schedule: Q01DX009 (ip), vehicle: saline) was 143 % of control and the T/C (T/C endpoint: mean survival time, dose: 150.0 mg/kg/injection, schedule: Q01DX001 (ip), vehicle: carboxymethylcellulose (CMC)) was 148 % of control. The T/C (T/C endpoint: mean survival time, dose: 300.0 mg/kg/injection, schedule: Q01DX001 (ip), vehicle: carboxymethylcellulose (CMC)) was 142 % of control and the T/C (T/C endpoint: mean survival time, dose: 300.0 mg/kg/injection, schedule: Q01DX001 (ip), vehicle: saline) was 135 % of control.

With `N#CCN(CC#N)CC#N` the survivor count (T/C endpoint: mean survival time, dose: 25.0 mg/kg/injection, schedule: Q04DX003 (ip), vehicle: saline with Tween-80) was 4 of 6, the survivor count (T/C endpoint: mean survival time, dose: 50.0 mg/kg/injection, schedule: Q04DX003 (ip), vehicle: saline with Tween-80) was 0 of 6 and the survivor count (T/C endpoint: mean survival time, dose: 100.0 mg/kg/injection, schedule: Q04DX003 (ip), vehicle: saline with Tween-80) was 0 of 6.

With `CNC` the survivor count (T/C endpoint: mean survival time, dose: 200.0 mg/kg/injection, schedule: Q04DX002 (ip), vehicle: saline) was 3 of 3 and the survivor count (T/C endpoint: mean survival time, dose: 400.0 mg/kg/injection, schedule: Q04DX002 (ip), vehicle: saline) was 3 of 3.

For `Nc1ncnc2c1ncn2[C@@H](C=O)O[C@@H](C=O)CO`, the T/C (T/C endpoint: mean survival time, dose: 0.78 mg/kg/injection, schedule: Q01DX009 (ip), vehicle: saline with Tween-80) was 128 % of control, the T/C (T/C endpoint: mean survival time, dose: 1.56 mg/kg/injection, schedule: Q01DX005 (ip), vehicle: other) was 125 % of control and the T/C (T/C endpoint: mean survival time, dose: 1.56 mg/kg/injection, schedule: Q01DX009 (ip), vehicle: saline with Tween-80) was 140 % of control. The T/C (T/C endpoint: mean survival time, dose: 3.13 mg/kg/injection, schedule: Q01DX005 (ip), vehicle: other) was 137 % of control, the T/C (T/C endpoint: mean survival time, dose: 6.25 mg/kg/injection, schedule: Q01DX005 (ip), vehicle: other) was 141 % of control and the T/C (T/C endpoint: mean survival time, dose: 12.5 mg/kg/injection, schedule: Q01DX005 (ip), vehicle: other) was 132 % of control [4 of 6 alive]. For the same compound, the survivor count (T/C endpoint: mean survival time, dose: 25.0 mg/kg/injection, schedule: Q01DX005 (ip), vehicle: other) was 3 of 6, the survivor count (T/C endpoint: mean survival time, dose: 25.0 mg/kg/injection, schedule: Q01DX005 (ip), vehicle: saline with Tween-80) was 3 of 6 and the survivor count (T/C endpoint: mean survival time, dose: 50.0 mg/kg/injection, schedule: Q01DX005 (ip), vehicle: other) was 1 of 6. The survivor count (T/C endpoint: mean survival time, dose: 50.0 mg/kg/injection, schedule: Q01DX005 (ip), vehicle: saline with Tween-80) was 0 of 6, the survivor count (T/C endpoint: mean survival time, dose: 100.0 mg/kg/injection, schedule: Q01DX005 (ip), vehicle: other) was 0 of 6 and the survivor count (T/C endpoint: mean survival time, dose: 100.0 mg/kg/injection, schedule: Q01DX005 (ip), vehicle: saline with Tween-80) was 1 of 6. The survivor count (T/C endpoint: mean survival time, dose: 200.0 mg/kg/injection, schedule: Q01DX005 (ip), vehicle: other) was 0 of 6.

With `COC1(c2ccco2)OC1(C)C` (configuration not stated) the survivor count (T/C endpoint: mean survival time, dose: 100.0 mg/kg/injection, schedule: Q04DX003 (ip), vehicle: saline sonified) was 0 of 6, the survivor count (T/C endpoint: mean survival time, dose: 200.0 mg/kg/injection, schedule: Q04DX003 (ip), vehicle: saline sonified) was 0 of 6 and the survivor count (T/C endpoint: mean survival time, dose: 400.0 mg/kg/injection, schedule: Q04DX003 (ip), vehicle: saline sonified) was 0 of 6.

In the case of `C#CC1(c2ccccc2)OCCO1`, the survivor count (T/C endpoint: mean survival time, dose: 100.0 mg/kg/injection, schedule: Q01DX001 (ip), vehicle: saline with Tween-80) was 3 of 6, the survivor count (T/C endpoint: mean survival time, dose: 200.0 mg/kg/injection, schedule: Q01DX001 (ip), vehicle: saline with Tween-80) was 0 of 6 and the survivor count (T/C endpoint: mean survival time, dose: 400.0 mg/kg/injection, schedule: Q01DX001 (ip), vehicle: saline with Tween-80) was 0 of 6.

`CN1C2CCC1C(Br)C(=O)C2` (configuration not stated) was tested, and the survivor count (T/C endpoint: median survival time, dose: 400.0 mg/kg/injection, schedule: Q01DX009 (ip), vehicle: saline) was 0 of 6.

For `CC/C(=N\[N+](C)(C)C)c1ccccc1`, the survivor count (T/C endpoint: mean survival time, dose: 75.0 mg/kg/injection, schedule: Q01DX009 (ip), vehicle: saline) was 2 of 6.

`O=C(CC(O)(C(F)(F)F)C(F)(F)F)c1ccc(Cl)cc1` was tested, and the survivor count (T/C endpoint: mean survival time, dose: 400.0 mg/kg/injection, schedule: Q04DX003 (ip), vehicle: saline with Tween-80) was 3 of 6.

With `O=c1nc(Oc2ccccc2)nc2ncccn12` the survivor count (T/C endpoint: mean survival time, dose: 100.0 mg/kg/injection, schedule: Q01DX009 (ip), vehicle: saline with Tween-80) was 0 of 6.

For `CCN(CC)c1ncnc2nncnc12`, the survivor count (T/C endpoint: mean survival time, dose: 400.0 mg/kg/injection, schedule: Q01DX001 (ip), vehicle: carboxymethylcellulose (CMC)) was 0 of 6.

For `CCCCOC(=O)C(C(=O)OCCCC)(C(=O)OCCCC)C(C(=O)OCCCC)(C(=O)OCCCC)C(=O)OCCCC`, the survivor count (T/C endpoint: mean survival time, dose: 200.0 mg/kg/injection, schedule: Q01DX001 (ip), vehicle: saline) was 3 of 3.

With `Cc1ccc(S(=O)(=O)SCc2ccccc2)cc1` the survivor count (T/C endpoint: mean survival time, dose: 400.0 mg/kg/injection, schedule: Q01DX009 (ip), vehicle: other) was 0 of 6.

`COc1cc(OC)c(NC(=O)Oc2ccc(C=O)cc2OC)cc1Cl` was tested, and the survivor count [1] was 3 of 3.

In the case of `COc1ccc(OC)c(NC(=O)OCC(F)(F)F)c1`, the survivor count [1] was 6 of 6.

In the case of `Cn1c(CS)nc2ccccc21`, the survivor count (T/C endpoint: mean survival time, dose: 400.0 mg/kg/injection, schedule: Q04DX002 (ip), vehicle: saline with Tween-80) was 0 of 3.

`Cc1cc(N(CCCl)CCCl)ccc1N=Nc1ccccc1C(=O)O` was tested, and the T/C (T/C endpoint: mean survival time, dose: 10.0 mg/kg/injection, schedule: Q01DX007 (ip), vehicle: saline) was 136 % of control, the T/C (T/C endpoint: mean survival time, dose: 10.0 mg/kg/injection, schedule: Q01DX009 (ip), vehicle: saline) was 126 % of control and the T/C (T/C endpoint: mean survival time, dose: 10.0 mg/kg/injection, schedule: Q04DX003 (ip), vehicle: saline) was 128 % of control. The T/C (T/C endpoint: mean survival time, dose: 16.0 mg/kg/injection, schedule: Q01DX009 (ip), vehicle: saline with Tween-80) was 134 % of control, the T/C (T/C endpoint: mean survival time, dose: 20.0 mg/kg/injection, schedule: Q01DX007 (ip), vehicle: saline) was 144 % of control and the T/C (T/C endpoint: mean survival time, dose: 20.0 mg/kg/injection, schedule: Q01DX009 (ip), vehicle: saline) was 132 % of control (2×). For the same compound, the T/C (T/C endpoint: mean survival time, dose: 20.0 mg/kg/injection, schedule: Q03DX003 (ip), vehicle: saline) was 125 % of control, the T/C (T/C endpoint: mean survival time, dose: 20.0 mg/kg/injection, schedule: Q04DX003 (ip), vehicle: saline) was 126 % of control and the T/C (T/C endpoint: mean survival time, dose: 32.0 mg/kg/injection, schedule: Q04DX003 (ip), vehicle: saline with Tween-80) was 134 % of control [5 of 6 alive]. For the same compound, the survivor count (T/C endpoint: mean survival time, dose: 40.0 mg/kg/injection, schedule: Q01DX009 (ip), vehicle: saline with Tween-80) was 5 of 6, the T/C (T/C endpoint: mean survival time, dose: 40.0 mg/kg/injection, schedule: Q01DX009 (ip), vehicle: saline) was 126 and 143 % of control and the T/C (T/C endpoint: mean survival time, dose: 40.0 mg/kg/injection, schedule: Q03DX003 (ip), vehicle: saline) was 130 % of control. The T/C (T/C endpoint: mean survival time, dose: 40.0 mg/kg/injection, schedule: Q04DX003 (ip), vehicle: saline) was 132 % of control, the survivor count (T/C endpoint: mean survival time, dose: 80.0 mg/kg/injection, schedule: Q01DX009 (ip), vehicle: saline with Tween-80) was 0 of 6 and the survivor count (T/C endpoint: mean survival time, dose: 160.0 mg/kg/injection, schedule: Q01DX001 (ip), vehicle: saline with Tween-80) was 3 of 6. The survivor count (T/C endpoint: mean survival time, dose: 320.0 mg/kg/injection, schedule: Q01DX001 (ip), vehicle: saline with Tween-80) was 3 of 6, the T/C (T/C endpoint: median survival time, dose: 10.0 mg/kg/injection, schedule: Q01DX009 (ip), vehicle: saline) was 128 % of control and the T/C (T/C endpoint: median survival time, dose: 20.0 mg/kg/injection, schedule: Q01DX009 (ip), vehicle: saline) was 128 % of control.
